These are yes or no findings as the source states them, for the method shown. In cells and extracts the contact can be indirect. Binding can be weak; no strength is given.
Biological target: HA-tagged L1 ORF1p (human) (UniProt Q9UN81)
Test: co-IP; lysates of 293T cells co-expressing Myc-tagged Rad18 (WT, ∆6BD or ∆C2) and HA-tagged L1 ORF1p; precipitated with anti-HA (3F10) and protein-G-Sepharose, 4 °C; blot with anti-Myc-tag; lysis buffer 10 mM Tris-HCl pH 8.0, 150 mM NaCl, 1 mM EDTA, 0.1% NP-40

Protein sequences, listed by entry. Tags and fused reporters are not part of them. Lines headed by an entry give the natural chain unless they say otherwise; changes in a name come on top.
UniProt Q9UN81: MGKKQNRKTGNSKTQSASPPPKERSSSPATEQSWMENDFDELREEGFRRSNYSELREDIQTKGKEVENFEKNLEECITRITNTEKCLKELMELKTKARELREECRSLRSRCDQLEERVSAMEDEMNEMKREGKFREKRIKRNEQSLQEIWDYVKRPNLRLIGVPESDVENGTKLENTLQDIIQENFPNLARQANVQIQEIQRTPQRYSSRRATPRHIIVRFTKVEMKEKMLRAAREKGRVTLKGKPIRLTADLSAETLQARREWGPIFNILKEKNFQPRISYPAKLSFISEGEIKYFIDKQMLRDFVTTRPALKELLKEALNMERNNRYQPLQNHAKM
UniProt Q9NS91: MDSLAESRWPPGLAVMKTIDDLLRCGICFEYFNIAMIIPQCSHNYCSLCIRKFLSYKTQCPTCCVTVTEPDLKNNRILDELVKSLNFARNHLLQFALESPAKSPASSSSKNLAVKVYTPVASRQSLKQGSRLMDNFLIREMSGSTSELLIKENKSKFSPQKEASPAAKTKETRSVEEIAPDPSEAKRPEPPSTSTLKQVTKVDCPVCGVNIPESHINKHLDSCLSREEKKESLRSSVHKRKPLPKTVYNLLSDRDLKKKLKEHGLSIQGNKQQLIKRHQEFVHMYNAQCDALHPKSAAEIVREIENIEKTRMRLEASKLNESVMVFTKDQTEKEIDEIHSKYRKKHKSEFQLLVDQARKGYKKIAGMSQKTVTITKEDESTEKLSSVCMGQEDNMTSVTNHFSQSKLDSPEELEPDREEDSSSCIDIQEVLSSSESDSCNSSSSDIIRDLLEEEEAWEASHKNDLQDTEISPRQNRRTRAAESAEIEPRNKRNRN

| Substance | binding |
| --- | --- |
| Myc-tagged Rad18 ∆C2 (from UniProt Q9NS91) | binds |
| Myc-tagged Rad18 ∆6BD (from UniProt Q9NS91) | no binding |
